PubChem BioAssay AID246 (DTP/NCI, 2004)
The list does not hold the whole screen: it is rich in T/C values a quarter to a half above the control, in often repeated tests (any T/C) and in doses without a T/C. Other doses and runs of a compound stand elsewhere. T/C is the treated group as % of the vehicle group. Some entries give survivors of the animals treated and no T/C: the source holds a T/C of zero for them, seemingly a mark for toxic or unscored doses. Some survivor counts are full or nearly so, which does not show that the dose was tolerated: survival well below the control is almost never listed, so the zero probably covers shortened survival too. Counts of survivors are from the toxicity check (mostly the fifth day) where no day follows; animals may have died later. Schedules are NCI's codes, read here as Q, the interval in days (D) or hours (H), X, the number of doses. Some schedule codes hold Z or #, which are not explained here. Some entries were tested several times; the results are listed from low to high. Where survival is the endpoint, this PubChem deposit counts one and a half times the control or more as active, and values a quarter to a half above the control carry no call in these data; other NCI protocols may use other cut-offs.

System: BDF1 mice, P1081 chloroleukemia ip, survival T/C
Assay: NCI In Vivo Anticancer Drug Screen. Data for tumor model P1081 Chloroleukemia (intraperitoneal) in B6D2F1 (BDF1) mice
Details: T/C endpoint: mean survival time, higher T/C = longer survival
Protocol: The antitumor activity of compounds was measured in mice bearing transplantable tumors. Survival or tumor size were measured and the results are expressed as the measurement made in the treated group (T) divided by the measurement made in the vehicle treated control group (C). The tumor model used in this assay is P1081 Chloroleukemia (intraperitoneal) in B6D2F1 (BDF1) mice

[1] = dose: 125.0 mg/kg/injection, schedule: Q01DX Z (ip), vehicle: carboxymethylcellulose (CMC)
[2] = dose: 250.0 mg/kg/injection, schedule: Q01DX Z (ip), vehicle: carboxymethylcellulose (CMC)
[3] = dose: 500.0 mg/kg/injection, schedule: Q01DX Z (ip), vehicle: carboxymethylcellulose (CMC)
[4] = dose: 1000.0 mg/kg/injection, schedule: Q01DX Z (ip), vehicle: carboxymethylcellulose (CMC)
[5] = dose: 12.5 mg/kg/injection, schedule: Q01DX010 (ip), vehicle: saline
[6] = dose: 25.0 mg/kg/injection, schedule: Q01DX010 (ip), vehicle: saline
[7] = dose: 50.0 mg/kg/injection, schedule: Q01DX010 (ip), vehicle: saline

## CC(=O)NC1=C(N2CC2)C(=O)C(NC(C)=O)=C(N2CC2)C1=O
dose: 125.0 micrograms/kg/injection, schedule: Q01DX010 (ip), vehicle: saline
  T/C: 127 and 135 % of control
dose: 1000.0 micrograms/kg/injection, schedule: Q01DX010 (ip), vehicle: saline
  T/C: 138 % of control

## CCOC(=O)NP(=O)(N1CC1(C)C)N1CC1(C)C (stereo not given)
[1]
  T/C: 150, 196, 202 % of control
  survivor count: 3 of 6 and 6 of 6
[2]
  T/C: 142, 186, 225 % of control
  survivor count: 0 of 6
[3]
  T/C: 130 % of control
  survivor count: 2 of 6 and 6 of 6
[4]
  survivor count: 0 of 6

## CC(=O)O[C@]1(C(C)=O)CC[C@H]2[C@@H]3C[C@H](C)C4=CC(=O)C=C[C@]4(C)[C@@]3(F)[C@@H](O)C[C@@]21C
dose: 80.0 mg/kg/injection, schedule: Q01DX Z (sc), vehicle: steroid suspending solution
  T/C: 128 % of control

## NC(=O)N(CCCl)N=O
dose: 2.0 mg/kg/injection, schedule: Q01DX Z (ip), vehicle: carboxymethylcellulose (CMC)
  survivor count: 5 of 6
dose: 32.0 mg/kg/injection, schedule: Q01DX Z (ip), vehicle: carboxymethylcellulose (CMC)
  survivor count: 6 of 6
dose: 64.0 mg/kg/injection, schedule: Q01DX Z (ip), vehicle: carboxymethylcellulose (CMC)
  survivor count: 0 of 6

## O=NN(CCCl)C(=O)NCCCl
dose: 8.0 mg/kg/injection, schedule: Q01DX Z (ip), vehicle: saline
  T/C: 126 % of control
[5]
  T/C: 135 % of control
dose: 16.0 mg/kg/injection, schedule: Q01DX Z (ip), vehicle: saline
  survivor count: 6 of 6
[6]
  survivor count: 6 of 6

## CCOC(N)=O
dose: 31.25 mg/kg/injection, schedule: Q01DX Z (ip), vehicle: saline
  survivor count: 6 of 6
dose: 62.5 mg/kg/injection, schedule: Q01DX Z (ip), vehicle: saline
  survivor count: 6 of 6
dose: 1000.0 mg/kg/injection, schedule: Q01DX010 (ip), vehicle: saline
  survivor count: 6 of 6
dose: 1000.0 mg/kg/injection, schedule: Q01DX Z (ip), vehicle: saline
  survivor count: 6 of 6

## Cc1cc(N(CCCl)CCCl)ccc1N=Nc1ccccc1C(=O)O
dose: 40.0 mg/kg/injection, schedule: Q01DX010 (ip), vehicle: saline
  survivor count: 6 of 6
dose: 60.0 mg/kg/injection, schedule: Q01DX Z (ip), vehicle: carboxymethylcellulose (CMC)
  survivor count: 3 of 6
dose: 80.0 mg/kg/injection, schedule: Q01DX010 (ip), vehicle: saline
  survivor count: 6 of 6

## Nc1nc(=S)c2ncn(C3OC(CO)C(O)C3O)c2[nH]1 (stereo not given)
dose: 1.25 mg/kg/injection, schedule: Q01DX Z (ip), vehicle: carboxymethylcellulose (CMC)
  T/C: 142 % of control
dose: 2.5 mg/kg/injection, schedule: Q01DX Z (ip), vehicle: carboxymethylcellulose (CMC)
  T/C: 142 % of control
dose: 8.0 mg/kg/injection, schedule: Q01DX010 (ip), vehicle: saline
  T/C: 133 % of control
dose: 10.0 mg/kg/injection, schedule: Q01DX Z (ip), vehicle: carboxymethylcellulose (CMC)
  survivor count: 5 of 6 and 6 of 6
dose: 16.0 mg/kg/injection, schedule: Q01DX010 (ip), vehicle: saline
  T/C: 138 % of control
dose: 20.0 mg/kg/injection, schedule: Q01DX Z (ip), vehicle: carboxymethylcellulose (CMC)
  survivor count: 6 of 6
dose: 40.0 mg/kg/injection, schedule: Q01DX Z (ip), vehicle: carboxymethylcellulose (CMC)
  survivor count: 6 of 6

## CSc1ncnc2nc[nH]c12
[6]
  T/C: 125 % of control
dose: 25.0 mg/kg/injection, schedule: Q01DX Z (ip), vehicle: carboxymethylcellulose (CMC)
  survivor count: 6 of 6
[7]
  T/C: 125 % of control
dose: 400.0 mg/kg/injection, schedule: Q01DX Z (ip), vehicle: carboxymethylcellulose (CMC)
  survivor count: 1 of 6

## COS(C)(=O)=O
[5]
  T/C: 125 % of control
dose: 100.0 mg/kg/injection, schedule: Q01DX010 (ip), vehicle: saline
  survivor count: 6 of 6
dose: 200.0 mg/kg/injection, schedule: Q01DX Z (ip), vehicle: water
  survivor count: 0 of 6

## CC[n+]1c(-c2ccccc2)c2cc(N)ccc2c2ccc(N)cc21
dose: 1.25 mg/kg/injection, schedule: Q01DX010 (ip), vehicle: saline
  T/C: 140 % of control
dose: 10.0 mg/kg/injection, schedule: Q01DX010 (ip), vehicle: saline
  T/C: 140 and 144 % of control

## CCN(CC)CCNc1ccc(C)c2sc3ccccc3c(=O)c12
dose: 0.78 mg/kg/injection, schedule: Q01DX Z (ip), vehicle: methylcellulose (MC)
  survivor count: 6 of 6
dose: 3.12 mg/kg/injection, schedule: Q01DX Z (ip), vehicle: methylcellulose (MC)
  survivor count: 6 of 6
dose: 6.25 mg/kg/injection, schedule: Q01DX Z (ip), vehicle: methylcellulose (MC)
  survivor count: 6 of 6
dose: 12.5 mg/kg/injection, schedule: Q01DX Z (ip), vehicle: methylcellulose (MC)
  survivor count: 6 of 6
dose: 25.0 mg/kg/injection, schedule: Q01DX Z (ip), vehicle: methylcellulose (MC)
  survivor count: 6 of 6
[7]
  T/C: 125 % of control
dose: 50.0 mg/kg/injection, schedule: Q01DX Z (ip), vehicle: methylcellulose (MC)
  survivor count: 6 of 6
dose: 100.0 mg/kg/injection, schedule: Q01DX Z (ip), vehicle: methylcellulose (MC)
  survivor count: 5 of 6
dose: 200.0 mg/kg/injection, schedule: Q01DX010 (ip), vehicle: saline
  survivor count: 6 of 6
dose: 200.0 mg/kg/injection, schedule: Q01DX Z (ip), vehicle: methylcellulose (MC)
  survivor count: 2 of 6

## Cc1n[nH]c(=O)[nH]c1=O
dose: 100.0 mg/kg/injection, schedule: Q01DX Z (ip), vehicle: other
  survivor count: 5 of 6
dose: 200.0 mg/kg/injection, schedule: Q01DX Z (ip), vehicle: other
  survivor count: 5 of 6
dose: 400.0 mg/kg/injection, schedule: Q01DX Z (ip), vehicle: other
  survivor count: 4 of 6
dose: 1600.0 mg/kg/injection, schedule: Q01DX Z (ip), vehicle: other
  survivor count: 5 of 6

## CC[C@H](c1ccc(O)cc1)[C@@H](CC)c1ccc(O)cc1
dose: 31.25 mg/kg/injection, schedule: Q01DX Z (sc), vehicle: steroid suspending solution
  survivor count: 6 of 6
dose: 62.5 mg/kg/injection, schedule: Q01DX Z (sc), vehicle: steroid suspending solution
  survivor count: 6 of 6
dose: 125.0 mg/kg/injection, schedule: Q01DX Z (sc), vehicle: steroid suspending solution
  survivor count: 4 of 6
dose: 250.0 mg/kg/injection, schedule: Q01DX Z (sc), vehicle: steroid suspending solution
  survivor count: 2 of 6

## O=CCC(O)C(O)C(O)CO (stereo not given)
[1]
  survivor count: 6 of 6
[3]
  survivor count: 6 of 6
[4]
  survivor count: 6 of 6

## CC(=O)Nc1ccc(/C=N/Nc2ccc([N+](=O)[O-])cn2)cc1
dose: 31.3 mg/kg/injection, schedule: Q01DX010 (ip), vehicle: saline
  survivor count: 6 of 6
dose: 62.5 mg/kg/injection, schedule: Q01DX010 (ip), vehicle: saline
  survivor count: 6 of 6
dose: 125.0 mg/kg/injection, schedule: Q01DX010 (ip), vehicle: saline
  survivor count: 6 of 6
dose: 250.0 mg/kg/injection, schedule: Q01DX010 (ip), vehicle: saline
  survivor count: 4 of 6

## CCCCn1cnc2c(=S)nc[nH]c21
dose: 32.0 mg/kg/injection, schedule: Q01DX010 (ip), vehicle: saline
  T/C: 135 % of control
dose: 64.0 mg/kg/injection, schedule: Q01DX010 (ip), vehicle: saline
  T/C: 125 % of control
dose: 200.0 mg/kg/injection, schedule: Q01DX Z (ip), vehicle: carboxymethylcellulose (CMC)
  survivor count: 3 of 6

## C[C@H](N)C(=O)N[C@@H]1[C@H]2C(=C(O)C[C@@H](O)[C@@H]2O)C(=O)O[C@@H]1C
dose: 2000.0 mg/kg/injection, schedule: Q01DX Z (ip), vehicle: saline
  survivor count: 5 of 6

## CN(C)c1ccc(/C=C\c2ccnc3ccccc23)cc1
dose: 50.0 mg/kg/injection, schedule: Q01DX Z (ip), vehicle: water
  survivor count: 6 of 6
